From ChEMBL document CHEMBL5154756, “Design, synthesis and biological evaluation of colchicine glycoconjugates as tubulin polymerization inhibitors” (Bioorg Med Chem, 2022)
pIC50: −log10 of the molar value.

Tested on: HT-29
Assay: Antiproliferative activity against human HT-29 cells over expressing GLUT1 measured after 72 hrs by MTT assay
Assay type: functional, cell-based
Settings: HT-29, 72 h

COc1cc2c(c(OC)c1OC)-c1ccc(OC)c(=O)cc1[C@@H](NC(C)=O)CC2 [COLCHICINE]
pIC50: 7.74
